Measurements as given in the supplement of paper PMC4604168 (melanoma cell lines).
The list shows a part of the results. Many values rest on one well or one pass, so single values are uncertain.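 Imaging used 1,536-well plates; nuclei positive for cleaved PARP by antibody were divided by total DNA-stained nuclei to yield the apoptosis fraction. Doses for screening kept most cells viable, and cell lines differ markedly in resting and induced cleaved-PARP levels.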

The molecules below were run on IST-MEL1 (assay: cleaved PARP positive nuclei fraction relative to DMSO control; melanoma cells; higher = more apoptosis). Conditions: library dose: low library concentration; 72 h.

In order of rising “cleaved PARP positive nuclei fraction” value:
1. O=C(Nc1cccc(Cl)c1)Nc1ncc(CCNc2ncnc3ccsc23)s1 + O=C(Oc1ccc([N+](=O)[O-])cc1)N1CCC(C(O)(c2ccc3c(c2)OCO3)c2ccc3c(c2)OCO3)CC1 [JZL184] (first compound 0.0008 µM, partner dose 1 µM)  28.5%
2. Cc1cc(SCc2sc(-c3ccc(C(F)(F)F)c(F)c3)nc2C)ccc1OCC(=O)O + C/C(O)=C(\C#N)C(=O)Nc1cc(Br)ccc1Br [LFM-A13] (first compound 2 µM, partner dose 2 µM)  36.5%
3. Cc1cc(SCc2sc(-c3ccc(C(F)(F)F)c(F)c3)nc2C)ccc1OCC(=O)O + Cc1cc([N+](=O)[O-])ccc1NS(=O)(=O)c1cc(Cl)ccc1Cl [FH535] (first compound 2 µM, partner dose 1 µM)  41.7%
4. CC1(C)NC(=O)N(c2ccc([N+](=O)[O-])c(C(F)(F)F)c2)C1=O [nilutamide] + Cc1cc(SCc2sc(-c3ccc(C(F)(F)F)c(F)c3)nc2C)ccc1OCC(=O)O [GW0742] (first compound 1 µM, partner dose 2 µM)  41.9%
5. CC(C)(C)c1cnc(CSc2cnc(NC(=O)C3CCNCC3)s2)o1 + C/C(O)=C(\C#N)C(=O)Nc1cc(Br)ccc1Br [LFM-A13] (first compound 0.01 µM, partner dose 2 µM)  42.3%
6. Cn1cncc1[C@@](N)(c1ccc(Cl)cc1)c1ccc2c(c1)c(-c1cccc(Cl)c1)cc(=O)n2C [tipifarnib] + Cc1cc(SCc2sc(-c3ccc(C(F)(F)F)c(F)c3)nc2C)ccc1OCC(=O)O [GW0742] (first compound 0.01 µM, partner dose 2 µM)  42.6%
7. Cc1cc(SCc2sc(-c3ccc(C(F)(F)F)c(F)c3)nc2C)ccc1OCC(=O)O + c1cc(-c2cnn3cc(-c4ccc(OCCN5CCCCC5)cc4)cnc23)ccn1 [Dorsomorphin] (first compound 2 µM, partner dose 0.4 µM)  43.9%
8. COC(=O)c1sccc1S(=O)(=O)Nc1ccc(Nc2ccccc2)cc1OC + O=C(Oc1ccc([N+](=O)[O-])cc1)N1CCC(C(O)(c2ccc3c(c2)OCO3)c2ccc3c(c2)OCO3)CC1 [JZL184] (first compound 1 µM, partner dose 1 µM)  44.1%
9. C[As](C)SC[C@H](NC(=O)CC[C@H](N)C(=O)O)C(=O)NCC(=O)O [Darinaparsin] + Cc1cc(SCc2sc(-c3ccc(C(F)(F)F)c(F)c3)nc2C)ccc1OCC(=O)O [GW0742] (first compound 0.4 µM, partner dose 2 µM)  56.6%
10. Cc1cc(SCc2sc(-c3ccc(C(F)(F)F)c(F)c3)nc2C)ccc1OCC(=O)O + Oc1nc(-c2ccc(C(F)(F)F)cc2)nc2c1CSCC2 [XAV939] (first compound 2 µM, partner dose 2 µM)  57.5%
11. OCCn1cc(-c2cnc3nnn(Cc4ccc5ncccc5c4)c3n2)cn1 + Cc1cc(SCc2sc(-c3ccc(C(F)(F)F)c(F)c3)nc2C)ccc1OCC(=O)O [GW0742] (first compound 1 µM, partner dose 2 µM)  57.9%
12. C/C(O)=C(\C#N)C(=O)Nc1cc(Br)ccc1Br + Cn1cc(/C=C2\C(=O)Nc3cccnc32)c2ccccc21 [GW441756] (first compound 2 µM, partner dose 0.4 µM)  59.2%
13. COc1cc2c(Oc3ccc4[nH]c(C)cc4c3F)ncnc2cc1OCCCN1CCCC1 [cediranib] + Cc1cc(SCc2sc(-c3ccc(C(F)(F)F)c(F)c3)nc2C)ccc1OCC(=O)O [GW0742] (first compound 0.4 µM, partner dose 2 µM)  69.3%
14. CC(C)(C)c1cnc(CSc2cnc(NC(=O)C3CCNCC3)s2)o1 + Cc1cc(SCc2sc(-c3ccc(C(F)(F)F)c(F)c3)nc2C)ccc1OCC(=O)O [GW0742] (first compound 0.01 µM, partner dose 2 µM)  69.9%
15. O=C(O)c1ccc(-c2c[nH]c3ncc(-c4ccccc4)cc23)cc1C1CCCC1 + Cc1cc(SCc2sc(-c3ccc(C(F)(F)F)c(F)c3)nc2C)ccc1OCC(=O)O [GW0742] (first compound 0.16 µM, partner dose 2 µM)  70.3%
16. O=C(Oc1ccc([N+](=O)[O-])cc1)N1CCC(C(O)(c2ccc3c(c2)OCO3)c2ccc3c(c2)OCO3)CC1 + CC(C)CCN1c2nc(Nc3cc(F)c(O)c(F)c3)ncc2N(C)C(=O)C1C [BID1870] (first compound 1 µM, partner dose 0.2 µM)  72.1%
17. COC(=O)c1sccc1S(=O)(=O)Nc1ccc(Nc2ccccc2)cc1OC + C/C(O)=C(\C#N)C(=O)Nc1cc(Br)ccc1Br [LFM-A13] (first compound 1 µM, partner dose 2 µM)  83%
18. Oc1nc(-c2ccc(C(F)(F)F)cc2)nc2c1CSCC2 + O=C(Oc1ccc([N+](=O)[O-])cc1)N1CCC(C(O)(c2ccc3c(c2)OCO3)c2ccc3c(c2)OCO3)CC1 [JZL184] (first compound 2 µM, partner dose 1 µM)  85.6%
19. Cn1nnc2c(C(N)=O)ncn2c1=O [temozolomide] + C/C(O)=C(\C#N)C(=O)Nc1cc(Br)ccc1Br [LFM-A13] (first compound 2 µM, partner dose 2 µM)  95.8%
20. Cn1cncc1[C@@](N)(c1ccc(Cl)cc1)c1ccc2c(c1)c(-c1cccc(Cl)c1)cc(=O)n2C [tipifarnib] + C/C(O)=C(\C#N)C(=O)Nc1cc(Br)ccc1Br [LFM-A13] (first compound 0.01 µM, partner dose 2 µM)  103%
21. NCC(=O)Nc1ccc(-n2nc(C(F)(F)F)cc2-c2ccc3c(ccc4ccccc43)c2)cc1 + O=C(Oc1ccc([N+](=O)[O-])cc1)N1CCC(C(O)(c2ccc3c(c2)OCO3)c2ccc3c(c2)OCO3)CC1 [JZL184] (first compound 1 µM, partner dose 1 µM)  106%
22. C[As](C)SC[C@H](NC(=O)CC[C@H](N)C(=O)O)C(=O)NCC(=O)O [Darinaparsin] + CCN(CC)CCCCNc1ncc2cc(-c3cc(OC)cc(OC)c3)c(NC(=O)NC(C)(C)C)nc2n1 [PD173074] (first compound 0.4 µM, partner dose 0.1 µM)  107%
23. C[As](C)SC[C@H](NC(=O)CC[C@H](N)C(=O)O)C(=O)NCC(=O)O [Darinaparsin] + COc1ccc(COc2ccc(Cc3cnc(N)nc3N)cc2OC)cc1 [GW2580] (first compound 0.4 µM, partner dose 1 µM)  115%
24. C[As](C)SC[C@H](NC(=O)CC[C@H](N)C(=O)O)C(=O)NCC(=O)O [Darinaparsin] + CCCCCCCCCCCC1=C(O)C(=O)C=C(O)C1=O [Embelin] (first compound 0.4 µM, partner dose 1.2 µM)  118%
25. C/C(O)=C(\C#N)C(=O)Nc1cc(Br)ccc1Br + CC(C)CCN1c2nc(Nc3cc(F)c(O)c(F)c3)ncc2N(C)C(=O)C1C [BID1870] (first compound 2 µM, partner dose 0.2 µM)  129%
26. COCC[n+]1c2c(n(Cc3cnccn3)c1C)C(=O)c1ccccc1C2=O + Cc1cc(SCc2sc(-c3ccc(C(F)(F)F)c(F)c3)nc2C)ccc1OCC(=O)O [GW0742] (first compound 0.0004 µM, partner dose 2 µM)  156%
27. COc1ccc(COc2ccc(Cc3cnc(N)nc3N)cc2OC)cc1 + C/C(O)=C(\C#N)C(=O)Nc1cc(Br)ccc1Br [LFM-A13] (first compound 1 µM, partner dose 2 µM)  174%
28. Cc1ccc(NC(=O)c2cccc(N(C)C)c2)cc1NC(=O)c1ccc(O)cc1 + C/C(O)=C(\C#N)C(=O)Nc1cc(Br)ccc1Br [LFM-A13] (first compound 2 µM, partner dose 2 µM)  177%
29. C#Cc1cccc(Nc2ncnc3cc(OCCOC)c(OCCOC)cc23)c1 [erlotinib] + O=C(Oc1ccc([N+](=O)[O-])cc1)N1CCC(C(O)(c2ccc3c(c2)OCO3)c2ccc3c(c2)OCO3)CC1 [JZL184] (first compound 0.8 µM, partner dose 1 µM)  198%
30. O=C(Nc1ccccc1)c1cc([N+](=O)[O-])ccc1Cl + O=C(Oc1ccc([N+](=O)[O-])cc1)N1CCC(C(O)(c2ccc3c(c2)OCO3)c2ccc3c(c2)OCO3)CC1 [JZL184] (first compound 2 µM, partner dose 1 µM)  200%
31. COc1cc(N2CCC(N3CCN(C)CC3)CC2)ccc1Nc1ncc(Cl)c(Nc2ccccc2S(=O)(=O)C(C)C)n1 + O=C(Oc1ccc([N+](=O)[O-])cc1)N1CCC(C(O)(c2ccc3c(c2)OCO3)c2ccc3c(c2)OCO3)CC1 [JZL184] (first compound 0.08 µM, partner dose 1 µM)  211%
32. c1cc(-c2cnn3cc(-c4ccc(OCCN5CCCCC5)cc4)cnc23)ccn1 [Dorsomorphin] + O=C(Oc1ccc([N+](=O)[O-])cc1)N1CCC(C(O)(c2ccc3c(c2)OCO3)c2ccc3c(c2)OCO3)CC1 [JZL184] (first compound 0.4 µM, partner dose 1 µM)  362%
33. O=C(Oc1ccc([N+](=O)[O-])cc1)N1CCC(C(O)(c2ccc3c(c2)OCO3)c2ccc3c(c2)OCO3)CC1 + CCCCCCCCCCCC1=C(O)C(=O)C=C(O)C1=O [Embelin] (first compound 1 µM, partner dose 1.2 µM)  516%
